Source: US20250388702A1
No constants are given. Whether binding was seen depends on the method and setting. Some binding calls cover weakened binding; strength is not graded here.

By UniProt entry, the sequences of proteins in these tests, tags left out. Where a name states a change or a piece, a line headed by the entry shows the natural chain unless it says otherwise.
UniProt Q8N743: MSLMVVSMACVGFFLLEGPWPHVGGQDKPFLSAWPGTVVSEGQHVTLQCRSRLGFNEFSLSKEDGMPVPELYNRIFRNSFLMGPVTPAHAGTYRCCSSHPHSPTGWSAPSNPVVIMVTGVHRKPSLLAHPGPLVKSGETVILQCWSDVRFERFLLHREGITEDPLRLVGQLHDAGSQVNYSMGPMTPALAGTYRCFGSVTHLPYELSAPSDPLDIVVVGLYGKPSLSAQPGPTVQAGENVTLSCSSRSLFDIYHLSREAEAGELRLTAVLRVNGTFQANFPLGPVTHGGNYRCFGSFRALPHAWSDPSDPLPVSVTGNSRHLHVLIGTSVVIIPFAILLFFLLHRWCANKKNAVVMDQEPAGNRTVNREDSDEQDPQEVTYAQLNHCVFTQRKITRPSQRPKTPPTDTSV

What was measured:
[1] = molecular target: Human KIR3DL3 (human) (UniProt Q8N743); test: flow cytometry, blocking assay: mAb pre-incubated with KIR3DL3-transfected 300.19 cells, then HHLA2-mIgG2a added; blocked ligand HHLA2-mIgG2a
[2] = molecular target: Human KIR3DL3 (human) (UniProt Q8N743); test: compared with 2F11
[3] = molecular target: Human KIR3DL3 (human) (UniProt Q8N743); test: selectivity, HEK293 cell microarray
[4] = molecular target: Human KIR3DL3 (human) (UniProt Q8N743); test: flow cytometry, KIR3DL3-transfected 300.19 cells, 30 min at 4 C, PE goat anti-mouse IgG (H+L) detection
[5] = molecular target: Human KIR3DL3 (human) (UniProt Q8N743); test: HEK293 cell microarray, hybridoma supernatant
[6] = molecular target: Human KIR3DL3 (human) (UniProt Q8N743); test: flow cytometry, KIR3DL3-transfected 300.19 cells
[7] = molecular target: Human KIR3DL3 (human) (UniProt Q8N743); test: flow cytometry, blocking assay: mAb pre-incubated with KIR3DL3-transfected 300.19 cells, then HHLA2-mIgG2a added; blocked ligand HHLA2-mIgG2a, detected with Alexa647 mAb 298.6F8
[8] = molecular target: Human KIR3DL3 (human) (UniProt Q8N743); test: Western blot of KIR3DL3

Measured: binding

B1: KIR3DL3 mAb 574.2.1G7.9.9 (antibody, IgG2b, V domains shown)
VH: ELKLEESGGGLVQPGGSMKLSCVASGFTFSNYWMNWVRQSPEKGLEWIAEIRLKSNNYATHYAESVKGRFTISRDDSKSSVYLQMNNLRAEDTGIFYCTPFYGSSFPYWGQGTLVTVSA
VL: DIQMTQTTSSLSASLGDRVTISCRASQDISNYLNWYQQKPDGTVKLLIYYTSILQLGVPPRFSGSGSGTDYSLTISNLEQEDIATYFCQQGNTLPFTFGAGTKVELK
binds: [1] | [2] | [3] | [4] | [5] | [6] | [7]

B2: KIR3DL3 mAb 574.2.2F11.2.7.4 (antibody, IgG2b, V domains shown)
VH: DVQLVESGGGLVQPGGSRKLSCAASGFTFSYFGMHWVRRAPEKGLEWVAFISSDSTTIYYTDTVKGRFTISRDNPKNTLFLQMTSLRSEDTAIYYCARFYDGAMDYWGQGTSVTVST
VL: DIVMTQSQKFMSTSVGDRVSITCKASQSVRTAVAWYQQKPGQSPKVLIYLASNRHTGVPDRFTGSGSGTDFTLTISNVQSEDLADYFCLQHWNYPLTFGAGTKLELK
binds: [1] | [8] | [3] | [4] | [5] | [6] | [7]

B3: KIR3DL3 mAb 574.2.8F7.1.7.4 (antibody, IgG1, V domains shown)
VH: DVKLVESGGGLVKPGGSLKLSCAASGFTFSSYCMSWVRQTPEKRLEWVATISSGGNYIYYPDSVKGRFTISRDIAKNTLYLQMSSLKSEDTAMYYCTRGGYDERYFDYWGQGTILTVSS
VL: DIQMTQSPASLSASVGETVTITCRASENIYSYLAWYQQKQGKSPQLLVYNAKTLTEGMPSRFSGSGSGTQFSLRINSLQPEDFGSYYCQHHHGTPRTFGGGTKLEIK
binds: [1] | [3] | [4] | [5] | [6] | [7]

B4: KIR3DL3 mAb 574.2.1C7.D2.6.5 (antibody, IgG1, V domains shown)
VH: QVQLQQSGAELMKPGASVKISCKATGYTFSNYWIEWIKQRPGHGLEWIGEILPGSGSTNYNEKFKGKATFTAATSSNTAYMQLSSLTSEDSAVYYCARRVPDYYGSRYYFDYWGQGTTLTVSS
VL: NIVMTQSPKSMSMSVGERVTLSCKASENVGIYVSWYQQKPEQSPKLLIYGASNRYTGVPDRFTGSGSATDFTLTISSVQAEDLADYHCGQSYNYPFTFGSGTKLEIK
binds: [3] | [4] | [5] | [7]

B5: KIR3DL3 mAb 574.2.2H1.11.6 (antibody, IgG2b, V domains shown)
VH: DVQLVESGGGLVQPGGSRKLSCAASGFTFSYFGMHWVRRAPEKGLEWVAFISSDSTTIYYTDTVKGRFTISRDNPKNTLFLQMTSLRSEDTAIYYCARFYDGAMDYWGQGTSVTVST
VL: DIVMTQSQKFMSTSVGDRVSITCKASQSVRTAVAWYQQKPGQSPKVLIYLASNRHTGVPDRFTGSGSGTDFTLTISNVQSEDLADYFCLQHWNYPLTFGAGTKLELK
binds: [3] | [4] | [5] | [7]

B6: KIR3DL3 mAb 574.2.2D8.6.9 (antibody, IgG2b, V domains shown)
VH: DVQLVESGGGLVQPGGSRKLSCAASGFTFSYFGMHWVRRAPEKGLEWVAFISSDSTTIYYTDTVKGRFTISRDNPKNTLFLQMTSLRSEDTAIYYCARFYDGAMDYWGQGTSVTVST
VL: DIVMTQSQKFMSTSVGDRVSITCKASQSVRTAVAWYQQKPGQSPKVLIYLASNRHTGVPDRFTGSGSGTDFTLTISNVQSEDLADYFCLQHWNYPLTFGAGTKLELK
binds: [3] | [4] | [5] | [7]

B7: KIR3DL3 mAb 574.2.1D12.1.6 (antibody, IgG2a, V domains shown)
VH: QVQLQQSGAELVRPGTSVKVSCKASGYAFNNYLIEWVKQRPGQGLEWIGVINPGSGGTNDNEKFRGKATLTADTSSSTAYMQLTSLTSDDSAVYFCARGNYYGTRDWYFDVWGAGTTVTVSS
VL: QIVLTQSPAIMSASLGARVTMTCTASSSVSSSSLHWYQQKPGSSPKLWIYSISSLASGVPARFSGSGSGTSYSLTISSLEAEDAATYYCHQYHRSPPTFGGGTKLEIK
binds: [5]

B8: KIR3DL3 mAb 574.2.8C2.12.3.10 (antibody, IgG2a, V domains shown)
VH: KVQLQQSGAELVRPGTSVKVSCKASGYAFTNYLIEWVKQRPGQGLEWIGVINPGSGGTNDNEKFRDKATLTADKSSSTAYMQLSSLTSDDSAVYFCARGNYYGTTDWYFDVWGAGTTVTVSS
VL: QIVLTQSPAIMSASLGERVTMTCTASASVSSSSLHWYQQKPGSPPKFWIYSTTNLASGVPTRFSGSGSGTSYSLTISNMEAEDAATYYCHQYHRSPPTFGGGTKLEIK
binds: [5]
